According to the supplement of paper PMC7666118:
The list shows a part of the results.

Chains of the proteins cited; added tags and fusions are not shown. Lines headed by an entry give the natural chain unless they say otherwise; changes in a name come on top.
UniProt Q9P2K5: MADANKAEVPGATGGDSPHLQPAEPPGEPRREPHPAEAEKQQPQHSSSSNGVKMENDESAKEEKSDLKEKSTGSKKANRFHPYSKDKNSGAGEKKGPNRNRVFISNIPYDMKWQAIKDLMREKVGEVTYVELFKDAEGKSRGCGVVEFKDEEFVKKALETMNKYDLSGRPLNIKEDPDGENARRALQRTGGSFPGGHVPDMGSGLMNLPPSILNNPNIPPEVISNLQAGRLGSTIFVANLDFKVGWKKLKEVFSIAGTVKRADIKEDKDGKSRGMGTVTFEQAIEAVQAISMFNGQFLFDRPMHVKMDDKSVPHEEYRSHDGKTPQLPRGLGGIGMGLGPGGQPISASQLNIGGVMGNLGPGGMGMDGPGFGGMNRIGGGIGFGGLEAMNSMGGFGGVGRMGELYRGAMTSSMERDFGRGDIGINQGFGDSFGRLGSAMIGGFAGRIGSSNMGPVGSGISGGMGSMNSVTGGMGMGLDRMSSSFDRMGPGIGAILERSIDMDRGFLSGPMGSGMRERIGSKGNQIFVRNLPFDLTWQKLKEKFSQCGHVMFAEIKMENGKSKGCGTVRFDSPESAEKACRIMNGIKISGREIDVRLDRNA
UniProt P29372, whole entry: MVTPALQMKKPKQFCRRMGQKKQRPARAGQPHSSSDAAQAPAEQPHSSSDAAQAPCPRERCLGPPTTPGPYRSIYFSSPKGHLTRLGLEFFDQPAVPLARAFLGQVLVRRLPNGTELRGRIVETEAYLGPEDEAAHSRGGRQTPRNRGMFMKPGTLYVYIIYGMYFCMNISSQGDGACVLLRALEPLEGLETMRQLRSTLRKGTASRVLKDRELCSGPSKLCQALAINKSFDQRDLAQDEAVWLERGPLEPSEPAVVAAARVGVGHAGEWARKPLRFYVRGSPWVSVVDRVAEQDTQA
UniProt Q6UB35, whole entry: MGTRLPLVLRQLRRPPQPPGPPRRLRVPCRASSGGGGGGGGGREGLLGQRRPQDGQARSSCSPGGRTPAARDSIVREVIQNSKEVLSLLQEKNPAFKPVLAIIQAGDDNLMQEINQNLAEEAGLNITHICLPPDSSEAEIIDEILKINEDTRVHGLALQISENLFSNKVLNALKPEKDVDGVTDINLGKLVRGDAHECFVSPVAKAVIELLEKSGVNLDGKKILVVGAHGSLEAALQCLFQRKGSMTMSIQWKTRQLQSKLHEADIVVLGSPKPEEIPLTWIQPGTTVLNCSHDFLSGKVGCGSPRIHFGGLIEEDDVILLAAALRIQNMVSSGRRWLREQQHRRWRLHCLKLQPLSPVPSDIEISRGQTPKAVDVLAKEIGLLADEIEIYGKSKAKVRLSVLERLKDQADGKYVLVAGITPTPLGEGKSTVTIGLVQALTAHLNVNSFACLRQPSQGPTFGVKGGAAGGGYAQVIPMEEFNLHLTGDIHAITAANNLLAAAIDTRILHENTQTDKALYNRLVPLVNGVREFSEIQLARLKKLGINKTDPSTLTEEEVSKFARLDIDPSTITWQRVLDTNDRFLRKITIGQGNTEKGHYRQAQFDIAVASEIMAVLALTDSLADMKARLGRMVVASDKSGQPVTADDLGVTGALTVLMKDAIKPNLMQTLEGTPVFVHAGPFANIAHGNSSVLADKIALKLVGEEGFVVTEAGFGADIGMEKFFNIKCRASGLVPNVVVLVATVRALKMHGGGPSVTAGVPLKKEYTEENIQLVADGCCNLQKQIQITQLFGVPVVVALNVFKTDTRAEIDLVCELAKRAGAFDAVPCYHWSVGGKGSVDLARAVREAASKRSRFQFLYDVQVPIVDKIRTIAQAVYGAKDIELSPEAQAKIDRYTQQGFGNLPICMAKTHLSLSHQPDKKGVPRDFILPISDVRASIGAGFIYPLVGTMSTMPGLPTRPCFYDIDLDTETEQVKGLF
UniProt Q9H3U5: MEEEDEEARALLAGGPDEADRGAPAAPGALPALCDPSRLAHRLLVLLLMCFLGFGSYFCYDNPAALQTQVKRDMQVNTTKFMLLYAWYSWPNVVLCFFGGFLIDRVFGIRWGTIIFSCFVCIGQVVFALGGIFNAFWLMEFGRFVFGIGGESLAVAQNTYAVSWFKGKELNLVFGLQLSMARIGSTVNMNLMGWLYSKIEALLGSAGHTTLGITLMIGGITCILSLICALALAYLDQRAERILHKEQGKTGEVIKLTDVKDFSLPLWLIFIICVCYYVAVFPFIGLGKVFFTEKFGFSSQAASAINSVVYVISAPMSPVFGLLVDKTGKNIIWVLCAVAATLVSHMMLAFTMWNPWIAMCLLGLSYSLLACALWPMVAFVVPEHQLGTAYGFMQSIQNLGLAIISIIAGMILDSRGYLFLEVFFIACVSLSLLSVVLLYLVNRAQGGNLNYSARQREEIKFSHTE
UniProt Q13615: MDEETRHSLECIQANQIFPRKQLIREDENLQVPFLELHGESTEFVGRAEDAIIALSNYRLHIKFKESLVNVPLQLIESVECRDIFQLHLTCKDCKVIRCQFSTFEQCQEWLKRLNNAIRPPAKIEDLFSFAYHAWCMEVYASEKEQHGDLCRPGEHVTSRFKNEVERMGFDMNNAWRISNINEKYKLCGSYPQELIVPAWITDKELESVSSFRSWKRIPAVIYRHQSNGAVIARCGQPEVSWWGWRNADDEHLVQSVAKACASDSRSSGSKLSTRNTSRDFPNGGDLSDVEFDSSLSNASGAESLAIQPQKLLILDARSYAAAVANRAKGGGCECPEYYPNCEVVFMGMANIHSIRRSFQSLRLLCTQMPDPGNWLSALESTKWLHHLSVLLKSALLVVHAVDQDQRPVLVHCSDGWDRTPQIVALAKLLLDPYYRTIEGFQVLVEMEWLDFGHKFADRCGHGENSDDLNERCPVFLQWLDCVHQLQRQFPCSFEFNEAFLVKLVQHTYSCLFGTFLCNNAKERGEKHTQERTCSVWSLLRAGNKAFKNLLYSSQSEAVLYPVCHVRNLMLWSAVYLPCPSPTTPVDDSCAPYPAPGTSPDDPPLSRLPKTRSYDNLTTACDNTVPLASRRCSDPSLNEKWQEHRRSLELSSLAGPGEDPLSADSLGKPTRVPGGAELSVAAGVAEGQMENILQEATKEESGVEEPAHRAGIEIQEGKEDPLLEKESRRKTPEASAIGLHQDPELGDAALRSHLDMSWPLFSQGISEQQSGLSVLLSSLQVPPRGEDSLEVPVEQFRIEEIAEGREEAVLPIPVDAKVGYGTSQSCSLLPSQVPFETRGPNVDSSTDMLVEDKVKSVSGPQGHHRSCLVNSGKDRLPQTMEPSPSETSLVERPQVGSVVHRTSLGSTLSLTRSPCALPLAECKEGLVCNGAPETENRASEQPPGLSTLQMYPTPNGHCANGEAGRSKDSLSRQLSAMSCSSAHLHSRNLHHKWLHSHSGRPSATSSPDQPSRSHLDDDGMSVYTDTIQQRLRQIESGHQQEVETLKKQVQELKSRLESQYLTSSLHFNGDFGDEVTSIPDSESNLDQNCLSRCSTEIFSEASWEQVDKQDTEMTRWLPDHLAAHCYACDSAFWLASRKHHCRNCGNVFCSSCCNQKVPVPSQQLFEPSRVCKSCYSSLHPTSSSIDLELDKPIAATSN
UniProt O43934: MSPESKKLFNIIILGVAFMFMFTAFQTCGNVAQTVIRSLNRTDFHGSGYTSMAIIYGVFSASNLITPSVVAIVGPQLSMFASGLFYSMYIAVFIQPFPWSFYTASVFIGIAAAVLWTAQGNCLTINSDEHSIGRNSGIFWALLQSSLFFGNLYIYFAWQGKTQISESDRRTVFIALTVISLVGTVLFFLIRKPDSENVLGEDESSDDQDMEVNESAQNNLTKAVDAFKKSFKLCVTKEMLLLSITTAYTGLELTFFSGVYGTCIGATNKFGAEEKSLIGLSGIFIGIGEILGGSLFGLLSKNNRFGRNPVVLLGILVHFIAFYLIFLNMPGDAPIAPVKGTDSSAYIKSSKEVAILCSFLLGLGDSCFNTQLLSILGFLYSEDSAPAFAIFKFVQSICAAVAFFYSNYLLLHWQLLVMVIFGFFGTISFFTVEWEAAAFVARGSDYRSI
UniProt P14649: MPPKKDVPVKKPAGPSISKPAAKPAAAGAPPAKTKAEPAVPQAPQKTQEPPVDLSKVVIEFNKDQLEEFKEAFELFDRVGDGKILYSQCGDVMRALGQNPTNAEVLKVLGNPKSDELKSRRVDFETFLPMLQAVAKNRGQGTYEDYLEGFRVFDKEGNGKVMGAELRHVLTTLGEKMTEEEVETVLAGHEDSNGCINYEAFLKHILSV
UniProt Q96G25: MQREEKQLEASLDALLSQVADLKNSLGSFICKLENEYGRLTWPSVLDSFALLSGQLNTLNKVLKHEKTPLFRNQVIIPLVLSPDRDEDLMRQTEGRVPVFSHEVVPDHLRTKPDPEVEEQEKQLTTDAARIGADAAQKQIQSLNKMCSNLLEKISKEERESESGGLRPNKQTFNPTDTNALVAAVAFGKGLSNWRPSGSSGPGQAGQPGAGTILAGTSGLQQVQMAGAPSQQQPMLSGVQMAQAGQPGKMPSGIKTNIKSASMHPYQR
UniProt O75570: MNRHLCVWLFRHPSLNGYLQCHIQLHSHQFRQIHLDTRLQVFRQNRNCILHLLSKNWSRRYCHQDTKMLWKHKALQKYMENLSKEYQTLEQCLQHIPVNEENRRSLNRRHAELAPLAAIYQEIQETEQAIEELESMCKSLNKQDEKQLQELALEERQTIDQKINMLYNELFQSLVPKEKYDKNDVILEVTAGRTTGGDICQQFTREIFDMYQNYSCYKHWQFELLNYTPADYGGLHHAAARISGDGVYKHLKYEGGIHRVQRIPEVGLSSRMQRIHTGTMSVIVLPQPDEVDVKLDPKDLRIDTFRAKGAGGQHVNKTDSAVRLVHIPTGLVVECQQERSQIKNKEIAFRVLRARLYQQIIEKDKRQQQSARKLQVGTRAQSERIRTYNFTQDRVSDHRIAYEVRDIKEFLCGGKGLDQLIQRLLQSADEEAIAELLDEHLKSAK
UniProt Q15049: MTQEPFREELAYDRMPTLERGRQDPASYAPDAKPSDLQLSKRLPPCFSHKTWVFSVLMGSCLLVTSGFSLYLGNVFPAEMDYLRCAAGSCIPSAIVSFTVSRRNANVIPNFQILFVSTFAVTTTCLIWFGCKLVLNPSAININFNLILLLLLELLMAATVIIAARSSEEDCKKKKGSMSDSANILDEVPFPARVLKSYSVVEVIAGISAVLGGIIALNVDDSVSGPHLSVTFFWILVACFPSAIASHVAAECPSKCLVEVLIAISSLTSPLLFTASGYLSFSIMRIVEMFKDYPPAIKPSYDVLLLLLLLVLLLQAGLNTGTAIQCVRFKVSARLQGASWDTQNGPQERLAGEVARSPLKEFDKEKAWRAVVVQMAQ
UniProt Q8IWA4: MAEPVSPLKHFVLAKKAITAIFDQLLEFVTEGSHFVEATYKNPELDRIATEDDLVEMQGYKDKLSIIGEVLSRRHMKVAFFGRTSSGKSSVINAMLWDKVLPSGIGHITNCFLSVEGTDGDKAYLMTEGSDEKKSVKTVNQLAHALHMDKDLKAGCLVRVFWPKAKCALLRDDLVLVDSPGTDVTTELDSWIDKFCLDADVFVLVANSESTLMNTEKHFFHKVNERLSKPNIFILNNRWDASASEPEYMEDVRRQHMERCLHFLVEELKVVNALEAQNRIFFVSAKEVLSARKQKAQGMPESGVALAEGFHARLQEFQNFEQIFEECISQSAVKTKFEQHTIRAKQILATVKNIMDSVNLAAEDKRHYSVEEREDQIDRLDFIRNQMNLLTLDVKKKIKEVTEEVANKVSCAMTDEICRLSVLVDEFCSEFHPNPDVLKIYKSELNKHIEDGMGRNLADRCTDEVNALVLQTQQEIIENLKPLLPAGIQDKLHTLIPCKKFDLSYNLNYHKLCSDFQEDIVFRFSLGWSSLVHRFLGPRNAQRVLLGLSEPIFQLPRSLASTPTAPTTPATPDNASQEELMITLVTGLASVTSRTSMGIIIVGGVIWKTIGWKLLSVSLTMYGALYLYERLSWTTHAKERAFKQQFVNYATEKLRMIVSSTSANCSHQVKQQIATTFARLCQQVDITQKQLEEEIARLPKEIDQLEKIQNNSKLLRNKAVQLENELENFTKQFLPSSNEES
UniProt Q8NBP5: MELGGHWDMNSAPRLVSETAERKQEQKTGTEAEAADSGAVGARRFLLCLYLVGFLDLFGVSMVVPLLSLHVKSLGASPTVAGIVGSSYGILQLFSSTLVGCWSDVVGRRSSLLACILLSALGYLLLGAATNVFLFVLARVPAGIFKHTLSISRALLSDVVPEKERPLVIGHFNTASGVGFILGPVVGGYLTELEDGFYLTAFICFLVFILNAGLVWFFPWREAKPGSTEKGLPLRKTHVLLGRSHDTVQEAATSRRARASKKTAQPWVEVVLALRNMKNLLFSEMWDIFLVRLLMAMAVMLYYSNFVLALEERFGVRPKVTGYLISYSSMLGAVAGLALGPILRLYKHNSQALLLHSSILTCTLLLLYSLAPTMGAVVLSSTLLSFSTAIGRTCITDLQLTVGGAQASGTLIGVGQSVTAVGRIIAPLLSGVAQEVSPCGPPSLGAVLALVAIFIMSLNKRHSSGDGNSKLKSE

Compound: COc1ccc(Cn2ccc3cc(C)c(C(=O)NO)cc32)cc1
Experiment: dose-dependent thermal stabilisation call (2D-TPP, DLPTP, 10% FDR) (binary (1 = stabilised)); higher = stabilised by the compound
Details: system: HL-60 intact cells; concentration range 0.04-10 µM
Protocol: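 2D thermal proteome profiling in intact HL-60 cells treated with BRD-3811 (0, 0.04, 0.29, 2, 10 uM) for 90 min at 37 C, then heated 3 min at one of 12 temperatures (42-63.9 C). Soluble protein was quantified by TMT10 MS. The value is the DLPTP call of the paper: dose-dependent thermal stabilisation over all temperatures at 10% FDR (F-test of a dose-response against a flat model); one experiment, one call per tested protein.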

Row | Target | dose-dependent thermal stabilisation call
1 | MTHFR (UniProt P42898) | inactive: 0
2 | MYEF2 (UniProt Q9P2K5) | inactive: 0
3 | MRPS31 (UniProt Q92665) | inactive: 0
4 | N6AMT2 (UniProt Q8WVE0) | inactive: 0
5 | MYSM1 (UniProt Q5VVJ2) | inactive: 0
6 | MPG (UniProt P29372) | inactive: 0
7 | MTHFD1L (UniProt Q6UB35) | inactive: 0
8 | MFSD1 (UniProt Q9H3U5) | inactive: 0
9 | MTMR3 (UniProt Q13615) | inactive: 0
10 | MFSD11 (UniProt O43934) | inactive: 0
11 | MLL (UniProt Q03164) | inactive: 0
12 | NAE1 (UniProt Q13564) | inactive: 0
13 | MYL6B (UniProt P14649) | inactive: 0
14 | MRPS17 (UniProt Q9Y2R5) | inactive: 0
15 | MED8 (UniProt Q96G25) | inactive: 0
16 | MKLN1 (UniProt Q9UL63) | inactive: 0
17 | MED26 (UniProt O95402) | inactive: 0
18 | MLH1 (UniProt P40692) | inactive: 0
19 | MED13L (UniProt Q71F56) | inactive: 0
20 | MTRF1 (UniProt O75570) | inactive: 0
21 | MLC1 (UniProt Q15049) | inactive: 0
22 | MRPL46 (UniProt Q9H2W6) | inactive: 0
23 | MTDH (UniProt Q86UE4) | inactive: 0
24 | MRPL37 (UniProt Q9BZE1) | inactive: 0
25 | MED24 (UniProt O75448) | inactive: 0
26 | MFN1 (UniProt Q8IWA4) | inactive: 0
27 | MFSD9 (UniProt Q8NBP5) | inactive: 0

2 records picked at random from those above, as already listed:
Row | Target | dose-dependent thermal stabilisation call
21 | MLC1 (UniProt Q15049) | inactive: 0
14 | MRPS17 (UniProt Q9Y2R5) | inactive: 0
